These are yes or no findings as the source states them, for the method shown. Binding seen in cells or lysates may run through a third protein. Some binding calls cover weakened binding; strength is not graded here.
Columns and labels:
Assay in all cases: pull-down; S. cerevisiae Smc5/6 subunits co-expressed in E. coli Rosetta (DE3), one subunit with a Twin-Strep tag (N- or C-terminal); clarified lysate on Strep-Tactin Sepharose, 1 h at 4°C, 50 mM Tris-HCl pH 7.5, 300 mM NaCl, 5% glycerol; eluted with 2.5 mM desthiobiotin; Coomassie-stained SDS-PAGE
[1] = molecular target: T1, S. cerevisiae Nse1 (S. cerevisiae) (UniProt Q07913)
T1 sequence: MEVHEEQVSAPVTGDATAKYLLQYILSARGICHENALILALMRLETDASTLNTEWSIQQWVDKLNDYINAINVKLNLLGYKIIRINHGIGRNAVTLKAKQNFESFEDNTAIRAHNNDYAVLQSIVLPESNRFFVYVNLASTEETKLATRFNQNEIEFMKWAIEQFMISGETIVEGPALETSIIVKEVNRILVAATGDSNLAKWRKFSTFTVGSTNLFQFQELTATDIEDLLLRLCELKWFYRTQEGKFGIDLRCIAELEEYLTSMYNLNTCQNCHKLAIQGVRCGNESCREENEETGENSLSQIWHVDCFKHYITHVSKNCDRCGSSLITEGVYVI

[2] = molecular target: T2, S. cerevisiae Nse2 (S. cerevisiae) (UniProt P38632)
T2 sequence: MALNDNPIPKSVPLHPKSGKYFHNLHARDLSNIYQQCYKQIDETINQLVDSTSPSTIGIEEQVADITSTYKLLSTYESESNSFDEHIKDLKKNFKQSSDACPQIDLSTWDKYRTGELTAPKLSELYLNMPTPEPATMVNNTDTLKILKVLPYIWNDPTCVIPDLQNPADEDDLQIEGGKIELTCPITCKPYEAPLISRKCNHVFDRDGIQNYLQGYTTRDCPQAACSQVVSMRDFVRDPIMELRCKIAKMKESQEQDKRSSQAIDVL

[3] = molecular target: T3, S. cerevisiae Nse3 (S. cerevisiae) (UniProt Q05541)
T3 sequence: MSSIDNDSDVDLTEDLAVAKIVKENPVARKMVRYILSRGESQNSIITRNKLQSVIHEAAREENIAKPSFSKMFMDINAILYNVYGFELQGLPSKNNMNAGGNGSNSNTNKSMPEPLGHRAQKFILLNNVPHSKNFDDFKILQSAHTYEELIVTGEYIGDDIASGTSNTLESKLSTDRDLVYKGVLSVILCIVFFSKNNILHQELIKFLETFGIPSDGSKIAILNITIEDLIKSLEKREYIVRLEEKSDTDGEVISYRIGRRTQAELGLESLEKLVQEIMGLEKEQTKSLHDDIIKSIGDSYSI

[4] = molecular target: T4, S. cerevisiae Nse4 (S. cerevisiae) (UniProt P43124)
T4 sequence: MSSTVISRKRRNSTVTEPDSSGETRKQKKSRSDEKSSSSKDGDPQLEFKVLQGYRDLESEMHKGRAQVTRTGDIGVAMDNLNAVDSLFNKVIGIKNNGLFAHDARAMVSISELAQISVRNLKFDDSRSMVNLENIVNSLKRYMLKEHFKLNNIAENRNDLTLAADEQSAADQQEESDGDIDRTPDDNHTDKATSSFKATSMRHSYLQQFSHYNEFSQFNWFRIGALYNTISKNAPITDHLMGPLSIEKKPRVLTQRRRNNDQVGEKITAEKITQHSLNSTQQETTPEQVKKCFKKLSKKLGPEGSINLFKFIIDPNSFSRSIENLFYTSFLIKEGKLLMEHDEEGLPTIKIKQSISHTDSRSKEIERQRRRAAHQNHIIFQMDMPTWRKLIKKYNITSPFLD

[5] = molecular target: T5, S. cerevisiae Smc5 (S. cerevisiae) (UniProt Q08204)
T5 sequence: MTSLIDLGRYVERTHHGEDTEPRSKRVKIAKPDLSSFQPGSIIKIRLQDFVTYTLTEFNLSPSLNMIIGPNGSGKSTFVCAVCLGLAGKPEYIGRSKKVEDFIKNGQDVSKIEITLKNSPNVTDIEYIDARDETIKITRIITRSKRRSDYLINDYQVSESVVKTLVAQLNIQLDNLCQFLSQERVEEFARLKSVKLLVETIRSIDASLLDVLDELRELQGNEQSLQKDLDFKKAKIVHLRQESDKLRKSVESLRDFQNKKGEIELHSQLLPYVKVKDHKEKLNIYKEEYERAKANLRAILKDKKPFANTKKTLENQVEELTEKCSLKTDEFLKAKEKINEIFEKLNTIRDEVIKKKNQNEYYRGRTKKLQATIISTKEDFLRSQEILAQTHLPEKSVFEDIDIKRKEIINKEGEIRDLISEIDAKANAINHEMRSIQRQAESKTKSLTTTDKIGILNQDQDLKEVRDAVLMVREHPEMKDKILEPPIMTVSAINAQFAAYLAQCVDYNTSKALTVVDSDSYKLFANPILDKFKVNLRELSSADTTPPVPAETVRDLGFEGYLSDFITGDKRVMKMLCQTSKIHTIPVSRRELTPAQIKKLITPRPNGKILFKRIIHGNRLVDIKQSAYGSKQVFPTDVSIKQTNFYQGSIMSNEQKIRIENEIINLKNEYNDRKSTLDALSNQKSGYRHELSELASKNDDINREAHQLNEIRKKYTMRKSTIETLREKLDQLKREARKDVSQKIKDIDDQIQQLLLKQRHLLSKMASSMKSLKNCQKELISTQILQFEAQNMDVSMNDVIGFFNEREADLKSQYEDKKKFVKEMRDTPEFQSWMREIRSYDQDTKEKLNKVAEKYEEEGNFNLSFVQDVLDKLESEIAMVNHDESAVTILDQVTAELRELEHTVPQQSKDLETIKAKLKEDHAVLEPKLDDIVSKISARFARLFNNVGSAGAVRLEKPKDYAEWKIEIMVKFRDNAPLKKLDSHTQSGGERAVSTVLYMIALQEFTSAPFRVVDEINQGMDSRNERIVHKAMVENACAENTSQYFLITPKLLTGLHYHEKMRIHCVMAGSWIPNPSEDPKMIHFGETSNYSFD

Measured: binding

B1: S. cerevisiae Smc6 (protein, UniProt Q12749 1-1114)
chain: MISTTISGKRPIEQVDDELLSLTAQQENEEQQQQRKRRRHQFAPMTQFNSNTLDEDSGFRSSSDVATADQDNFLEESPSGYIKKVILRNFMCHEHFELELGSRLNFIVGNNGSGKSAILTAITIGLGAKASETNRGSSLKDLIREGCYSAKIILHLDNSKYGAYQQGIFGNEIIVERIIKRDGPASFSLRSENGKEISNKKKDIQTVVDYFSVPVSNPMCFLSQDAARSFLTASTSQDKYSHFMKGTLLQEITENLLYASAIHDSAQENMALHLENLKSLKAEYEDAKKLLRELNQTSDLNERKMLLQAKSLWIDVAHNTDACKNLENEISGIQQKVDEVTEKIRNRQEKIERYTSDGTTIEAQIDAKVIYVNEKDSEHQNARELLRDVKSRFEKEKSNQAEAQSNIDQGRKKVDALNKTIAHLEEELTKEMGGDKDQMRQELEQLEKANEKLREVNNSLVVSLQDVKNEERDIQHERESELRTISRSIQNKKVELQNIAKGNDTFLMNFDRNMDRLLRTIEQRKNEFETPAIGPLGSLVTIRKGFEKWTRSIQRAISSSLNAFVVSNPKDNRLFRDIMRSCGIRSNIPIVTYCLSQFDYSKGRAHGNYPTIVDALEFSKPEIECLFVDLSRIERIVLIEDKNEARNFLQRNPVNVNMALSLRDRRSGFQLSGGYRLDTVTYQDKIRLKVNSSSDNGTQYLKDLIEQETKELQNIRDRYEEKLSEVRSRLKEIDGRLKSTKNEMRKTNFRMTELKMNVGKVVDTGILNSKINERKNQEQAIASYEAAKEELGLKIEQIAQEAQPIKEQYDSTKLALVEAQDELQQLKEDINSRQSKIQKYKDDTIYYEDKKKVYLENIKKIEVNVAALKEGIQRQIQNACAFCSKERIENVDLPDTQEEIKRELDKVSRMIQKAEKSLGLSQEEVIALFEKCRNKYKEGQKKYMEIDEALNRLHNSLKARDQNYKNAEKGTCFDADMDFRASLKVRKFSGNLSFIKDTKSLEIYILTTNDEKARNVDTLSGGEKSFSQMALLLATWKPMRSRIIALDEFDVFMDQVNRKIGTTLIVKKLKDIARTQTIIITPQDIGKIADIDSSGVSIHRMRDPERQNNSNFYN
binds: [1] | [2] | [3] | [4] | [5]
